Consider 5 molecules from patent US20240092941A1 (FRED HUTCHINSON CANCER CENTER, published 2024).

The chains behind the UniProt entries cited, without tags or fusion partners. Where a name states a change or a piece, a line headed by the entry shows the natural chain unless it says otherwise. Residues count along the entry.
UniProt Q01973: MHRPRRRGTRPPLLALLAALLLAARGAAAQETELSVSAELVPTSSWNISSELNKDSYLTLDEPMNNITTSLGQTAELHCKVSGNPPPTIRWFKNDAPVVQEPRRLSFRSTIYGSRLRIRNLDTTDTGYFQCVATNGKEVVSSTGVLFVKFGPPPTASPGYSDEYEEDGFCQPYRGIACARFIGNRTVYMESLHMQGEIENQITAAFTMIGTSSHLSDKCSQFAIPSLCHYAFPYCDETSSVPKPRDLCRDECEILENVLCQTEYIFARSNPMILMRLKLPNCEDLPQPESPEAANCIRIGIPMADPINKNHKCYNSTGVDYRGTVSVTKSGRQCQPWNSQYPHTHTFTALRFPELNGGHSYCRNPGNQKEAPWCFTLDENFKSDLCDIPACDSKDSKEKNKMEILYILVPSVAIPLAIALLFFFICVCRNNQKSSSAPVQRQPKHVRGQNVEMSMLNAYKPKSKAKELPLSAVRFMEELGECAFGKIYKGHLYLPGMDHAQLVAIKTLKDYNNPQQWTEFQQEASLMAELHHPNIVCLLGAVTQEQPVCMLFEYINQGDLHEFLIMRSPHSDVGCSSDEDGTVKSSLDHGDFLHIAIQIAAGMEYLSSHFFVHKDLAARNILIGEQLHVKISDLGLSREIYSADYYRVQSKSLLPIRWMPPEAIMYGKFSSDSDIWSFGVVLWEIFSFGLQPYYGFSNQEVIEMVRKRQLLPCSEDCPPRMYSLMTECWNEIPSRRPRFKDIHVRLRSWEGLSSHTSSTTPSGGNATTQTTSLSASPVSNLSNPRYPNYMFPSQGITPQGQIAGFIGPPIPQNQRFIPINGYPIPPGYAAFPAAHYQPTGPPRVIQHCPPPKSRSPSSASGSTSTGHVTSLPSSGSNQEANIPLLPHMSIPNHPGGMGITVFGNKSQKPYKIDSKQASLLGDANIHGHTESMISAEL
endogenously expressed ROR1: residues 30-937 of Q01973
ROR1 Kringle fragment: residues 312-391 of Q01973

Results are given in words; binding and its absence hold for the method and conditions named. Some results given as binding are weak or reduced against the parent protein; the word gives no strength.

The target of assay [1] is T1, soluble ROR1 ectodomain (UniProt Q01973 30-406, limits assumed).
T1 construct: extracellular domain
In words: size exclusion chromatography of the complex. (In general: In gel filtration, larger molecules generally elute earlier.)

Assay [2] addresses endogenously expressed ROR1 (UniProt Q01973). Description: staining of cancer cell lines (FIG. 1D).
Assay [3] deals with ROR1 Kringle fragment (UniProt Q01973). Description: Superdex 200 SEC: Nb14 complex against free Nb14 and free Kringle fragment.
Assay [4] has as its target T1, soluble ROR1 ectodomain. In words: ranking of affinity; FIG. 2 gives surface display with ROR1-A647 and Kd by Carterra.
The target in assay [5] is ROR1 Kringle fragment (UniProt Q01973). Description: Superdex 200 SEC: Nb11 complex against free Nb11 and free Kringle fragment.

B1: Nb14 WT (VHH)
VHH: QVKLVQSGGGLVQTGGSLRLSCAASEITFDMYSMGWYREAPGKARDAVASITNRGNTYYADSVKGRFTISRDNAKKTMYLQMNSLKPEDTAVYYCNVYRTGFSDYWGQGTQVTVSS
B1: the binding result in assay [1], in assay [2] and in assay [3] was “binds” each time.

B2: huNb14 Hi2 (VHH)
VHH: QVKLVQSGGGLVQTGGSLRLSCAASGITFDMYSMGWYRQAPGKGLEAVASITNRGNTYYADSVKGRFTISRDNAKNTLYLQMNSLRPEDTAVYYCNVYRTGFSDYWGQGTLVTVSS
For B2, the binding result in assay [4] is “binds”.

B3: huNb14 Mid1 (VHH)
VHH: QVQLVQSGGGLVQTGGSLRLSCAASGITFDMYSMGWFRQAPGKGLDAVASITNRGNTYYADSVKGRFTISRDNAKNTLYLQMNSLRAEDTAVYYCNVYRTGFSDYWGQGTLVTVSS
For B3, in assay [4], the binding result was “binds”.

B4: huNb14 Lo1 (VHH)
VHH: QVQLVQSGGGLVQPGGSLRLSCAASGITFDMYSMGWYREAPGKGLEAVASITNRGNTYYADSVKGRFTISRDNAKNTLYLQMNSLRAEDTAVYYCAVYRTGFSDYWGQGTLVTVSS
As to B4, in assay [4], the binding entry is “binds”.

B5: Nb11 WT (VHH)
VHH: QVKLVQSGGGLVQAGGSLRLSCAASGSIFSSASMGWYRQAPGKPREQVASITRDGNTYYEDDVKGRFTISRDNARSTGYLQMNSLTPEDTGVYYCNVYQLGFYDKWGQGTQVIVSS
On to B5, for which the binding entry in assay [1], in assay [2] and in assay [5] was “binds” each time.
